{
  "sequences": {"note": "Protein sequences, listed by entry. Tags and fused reporters are not part of them. Lines headed by an entry give the natural chain unless they say otherwise; changes in a name come on top.", "UniProt Q15061": "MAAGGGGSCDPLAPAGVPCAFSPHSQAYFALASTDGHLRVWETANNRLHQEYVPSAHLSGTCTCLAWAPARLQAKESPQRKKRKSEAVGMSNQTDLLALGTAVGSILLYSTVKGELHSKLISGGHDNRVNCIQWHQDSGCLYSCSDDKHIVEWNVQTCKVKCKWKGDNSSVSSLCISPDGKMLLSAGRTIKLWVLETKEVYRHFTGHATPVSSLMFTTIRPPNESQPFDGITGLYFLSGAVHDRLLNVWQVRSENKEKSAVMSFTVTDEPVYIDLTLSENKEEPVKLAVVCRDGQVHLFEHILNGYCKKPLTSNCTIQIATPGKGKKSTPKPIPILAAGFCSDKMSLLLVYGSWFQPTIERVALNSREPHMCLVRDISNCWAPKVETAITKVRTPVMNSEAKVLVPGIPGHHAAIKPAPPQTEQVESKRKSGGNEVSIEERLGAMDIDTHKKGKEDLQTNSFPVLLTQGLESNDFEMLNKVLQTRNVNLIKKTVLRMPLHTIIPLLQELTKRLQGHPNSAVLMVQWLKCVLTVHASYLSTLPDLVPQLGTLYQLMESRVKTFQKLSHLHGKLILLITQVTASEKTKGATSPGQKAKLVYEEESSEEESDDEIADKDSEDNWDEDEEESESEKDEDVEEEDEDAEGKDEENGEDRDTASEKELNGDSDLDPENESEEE", "UniProt Q9NNW5": "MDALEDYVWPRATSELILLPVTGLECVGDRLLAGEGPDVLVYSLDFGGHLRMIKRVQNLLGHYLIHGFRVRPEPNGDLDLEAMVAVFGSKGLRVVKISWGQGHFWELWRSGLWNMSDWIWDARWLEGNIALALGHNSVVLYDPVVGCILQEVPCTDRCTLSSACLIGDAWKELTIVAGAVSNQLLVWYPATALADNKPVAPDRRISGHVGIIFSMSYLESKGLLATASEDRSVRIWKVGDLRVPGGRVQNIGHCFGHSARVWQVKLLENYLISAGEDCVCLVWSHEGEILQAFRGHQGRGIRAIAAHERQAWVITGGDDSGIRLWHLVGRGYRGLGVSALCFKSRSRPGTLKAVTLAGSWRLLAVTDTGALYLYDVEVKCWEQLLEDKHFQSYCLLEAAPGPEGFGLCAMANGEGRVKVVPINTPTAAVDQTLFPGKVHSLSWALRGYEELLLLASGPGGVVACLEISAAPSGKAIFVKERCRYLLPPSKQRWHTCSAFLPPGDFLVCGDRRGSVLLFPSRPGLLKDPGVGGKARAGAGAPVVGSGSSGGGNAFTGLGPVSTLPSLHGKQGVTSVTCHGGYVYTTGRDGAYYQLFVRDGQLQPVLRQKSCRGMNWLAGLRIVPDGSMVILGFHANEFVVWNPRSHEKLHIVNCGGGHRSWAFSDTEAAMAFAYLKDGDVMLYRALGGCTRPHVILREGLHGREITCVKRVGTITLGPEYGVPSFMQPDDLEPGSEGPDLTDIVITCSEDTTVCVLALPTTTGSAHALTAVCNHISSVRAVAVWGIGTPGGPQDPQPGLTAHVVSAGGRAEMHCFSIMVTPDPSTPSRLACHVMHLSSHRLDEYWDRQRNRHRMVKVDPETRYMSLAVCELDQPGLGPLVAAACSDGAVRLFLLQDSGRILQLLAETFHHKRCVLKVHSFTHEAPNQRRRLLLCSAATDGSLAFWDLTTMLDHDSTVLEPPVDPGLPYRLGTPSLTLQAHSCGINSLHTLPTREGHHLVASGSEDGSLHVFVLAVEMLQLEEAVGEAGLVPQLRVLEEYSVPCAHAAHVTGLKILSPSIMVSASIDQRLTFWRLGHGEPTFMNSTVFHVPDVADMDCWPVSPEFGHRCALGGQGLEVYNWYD"},
  "source": "the supplement of paper PMC12067093",
  "about": "“Discovery and optimisation of a covalent ligand for TRIM25 and its application to targeted protein ubiquitination” (Chemical Science, 2025)",
  "key": {"[1]": {"biological_target": "WDR43_Q15061_158_HIVEWNVQTCK (UniProt Q15061)", "assay": "probe-labelled cysteine peptide fold change vs DMSO (competition) (log2 fold change); higher = less target engagement (more negative = stronger competition)", "conditions": "THP-1, incubation time: 4 h"}, "[2]": {"biological_target": "WDR6_Q9NNW5_653_LHIVNCGGGHR (UniProt Q9NNW5)", "assay": "probe-labelled cysteine peptide fold change vs DMSO (competition) (log2 fold change); higher = less target engagement (more negative = stronger competition)", "conditions": "THP-1, incubation time: 4 h"}},
  "note": "The other results are listed elsewhere or left out.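 Note: competitive profiling in live THP-1 cells: cysteine peptides tagged with an iodoacetamide desthiobiotin (IA-DTB) probe, intensity after compound treatment relative to DMSO-treated cells.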",
  "data": [
    {"smiles": "Cc1cc(C(=O)N2CCCN(C(=O)CCl)CC2)ccc1-c1ccccc1", "note": "[compound 10]", "values": [
      {"measurement": "probe-labelled cysteine peptide fold change", "setting": "[1]; 10 µM", "value": -0.0124},
      {"measurement": "probe-labelled cysteine peptide fold change", "setting": "[1]; 50 µM", "value": -0.0233},
      {"measurement": "probe-labelled cysteine peptide fold change", "setting": "[2]; 10 µM", "value": 0.188},
      {"measurement": "probe-labelled cysteine peptide fold change", "setting": "[2]; 50 µM", "value": -0.0331}
    ]}
  ]
}
